# Data as given in article PMC3556083.
# B1: AMPD3 (protein, UniProt O09178 1-765)
# chain: MPRQFPKLNMSDLDEHVRLLAEKVFAKVLREEDSKDVMSLFTVPKDCPIGQKEAKERELQKELAEQKSVETAKRKKSFKMIRSQSMSLQMPTQDWKGPPSVSPAMSPTTPLVLGAASKPGLAPYDMPEYQRATISGDYCAGITMEDYEQAAKSLAKALMIREKYARLAYHRFPRTTAQYLAHQGESVPLEEGLPDFHPPPLPQEDPYCLDDAPPNLGYLVRMQGGVLFVYDNQTMLERQEPHSLPYPDLETYIVDMSHILALITDGPTKTYCHRRLNFLESKFSLHEMLNEMSEFKELKSNPHRDFYNVRKVDTHIHAAACMNQKHLLRFIKYTYQTEPDRTVAEKLGRKITLRQVFDSLHMDPYDLTVDSLDVHAGRQTFHGFDKFNSKYNPVGASELRDLYLKTENYLGGEYFARMVKEVARELEDSKYQYSEPRLSIYGRSPKEWSSLARWFIQHKVYSPNMRWIIQVPRIYDIFRSKKLLPSFGKMLENIFLPLFQATINPQDHRELHLFLKYVTGFDSVDDESKHSDHMFSDKSPSPDLWTSEQNPPYSYYLYYMYANIMVLNNLRRERGLSTFLFRPHCGEAGSITHLVSAFLTADNISHGLLLKKSPVLQYLYYLAQIPIAMSPLSNNSLFLEYSKNPLREFLHKGLHVSLSTDDPMQFHYTKEALMEEYAIAAQVWKLSTCDLCEIARNSVLQSGLSHQEKQKFLGQNYYKEGPEGNDIRKTNVAQIRMAFRYETLCNELSFLSDAMKSEEITALAD
# B2: PTGES2 (protein, UniProt D4AE56 1-392)
# chain: MAQAARVAWVLGSSRCALSEGLLTRPWTQLSAQSRAGFTRAAAGNRGASIRKGSPRLLGVAALALGGALGLYHTVRWHLRSQDLHAERSAVQLSLSNRLQLTLYQYKTCPFCSKVRAFLDFHSLPYQVVEVNPVRRTEIKFSSYRKVPILVAQEGDSLQQLNDSSVIISALKTYLVSGQPLEEIITYYPPMKAMNDQGKEVTEFGNKYWLMLDQKEAQQMYGGKEARTEEMKWRQWADDWLVHLISPNVYRTPAEALASFDYIVREGKFGAVEATMAKYVGAAAMYFISKRLKSRHHLQDDVRVDLYEAANKWVTAVGKDRPFMGGQKPNLADLAVYGVLRVMEGLEAFDDLMRHSHIQPWYLRMERAIKEASSMHYLMFMFSPVPALHREQ
# B3: GPLD1 (protein, UniProt Q8R2H5 24-843)
# chain: CGLSTHVEIGHRALQFLQLQDGRINYKELLLEHQDAYQAGTVFPDAFYPSICKQGKFHEVSESTHWTPFLNASIHYIRENYPLPWEKDTEKLVAFLFGVTSHMVADVSWHSLGIEQGFLRTMGAIDFYDSYSEAHSAGDFGGDVLSQFEFNFNYLSRRWYVPIQDLLRIYDNLYGRKVITKNVIVDCTYLQFLEMHGEMLAVSKLYSTYSTKSPFLVEQFQDYFLGGLDDMAFWSTNIYRLTSFMLENGTSDCNLPENPLFISCDGRKNHTLSSSKVQKNDFHRNLTMFISKDIRKNLNYTERGVFYSTGSWAPESVTFMYQTLERNLRMMFTGNSQTALKHVSSPSASYTLSVPYARLGWVMASADLNQDGHGDLVVGAPGYSHPGRFQIGRVYIIYGNDLGLPPIDLDLDKEAHGVLEGFQPSGRFGSALAVLDFNKDGLPDLAVGAPSVGSGQLTYNGSVYVYYGSQQGRLSSSPNITISCKDTYCNLGWALLAADADGDGQHDLVISSPFAPGGGKQRGIVAAFYSHPRRNDKESLTLDEADWKVNGEEDFSWFGYSLHGVTVANRSLLLIGSPTWKNISRMARSSHQKNQEKKSLGRVYGYFPPNRQREITISGDKAMGKLGTSLSSGYVRVNGTLTQVLLVGAPTHDDVSKMAFLTMTLHHGGATRMYELAPEKTQPALFSTFSGDRRFSRFGSVLHLTDLDDDGLDEIIMAAPLRITDVTSGLLGEEDGRVYIYNGMHTTLGDVTGKCKSWMTPCPEEKAQYVLISPEASSRFGSSLVSVRSKERNQVVVAAGRSSWGARLSGALHVYSFSSD
# B4: PTPMT1 (protein, UniProt P0C089 32-193)
# chain: PAHRDWYHRIDHTVLLGALPLRSMTRRLVLDENVRGVITMNEEYETRFLCNTSKEWKNVGVEQLRLSTVDMTGVPTLANLHRGVQFALKYQSLGQCVYVHCKAGRSRSATMVAAYLIQVHNWSPEEAIEAIAKIRSHISIRPSQLEILKEFHKEIAARAAKN
# B5: QKI (protein, UniProt Q91XU1 1-341)
# chain: MVGEMETKENPNPTPDYLMQLMNDKKLMSSLPNFCGIFNHLERLLDEEISRVRKDMYNDTLNGSTEKRSAELPDAVGPIVQLQEKLYVPVKEYPDFNFVGRILGPRGLTAKQLEAETGCKIMVRGKGSMRDKKKEEQNRGKPNWEHLNEDLHVLITVEDAQNRAEIKLKRAVEEVKKLLVPAAEGEDSLKKMQLMELAILNGTYRDANIKSPALAFSLAATAQAAPRIITGPAPVLPPAALRTPTPAGPTIMPLIRQIQTAVMPNGTPHPTAAIVPPGPEAGLIYTPYEYPYTLAPATSILEYPIEPSGVLGAVATKVRRHDMRVHPYQRIVTADRAATGN
# B6: SH3GLB1 (protein, UniProt Q6AYE2 1-365)
# chain: MNIMDFNVKKLAADAGTFLSRAVQFTEEKLGQAEKTELDAHLENLLSKAECTKVWTEKIMKQTEVLLQPNPNARIEEFVYEKLDRKAPSRINNPELLGQYMIDAGTEFGPGTAYGNALIKCGETQKRIGTADRELIQTSALNFLTPLRNFIEGDYKTIAKERKLLQNKRLDLDAAKTRLKKAKAAETKSSSEQELRITQSEFDRQAEITRLLLEGISSTHAHHLRCLNDFVEAQMTYYAQCYQYMLDLQKQLGSFPSNYVSNNNQTSGTPVPYTLSNTIGPSAVASTGSLVITCPPNLSDLKDSSSTRKARVLYDYDAANSTELSLLADEVITVFSVVGMDSDWLMGERGNQKGKVPITYLELLN
# B7: CRAT (protein, UniProt Q704S8 1-626)
# chain: MLAFAARTVVKPLGLLKPSSLMKVSGRFKAHQDALPRLPVPPLQQSLDHYLKALQPIVSEEEWAHTKQLVDEFQTSGGVGERLQKGLERRAKKMENWLSEWWLKTAYLQFRQPVVIYSSPGVLLPKQDFMDLQGQLRFAAKLIEGVLDFKSMIDNETLPVEFLGGQPLCMNQYYQILSSCRVPGLKQDSVVNFLKSKKPPTHITVVHNYQFFELDVYHSDGTPLTSDQIFVQLEKIWNSSLQSNKEPVGILTSNHRNSWAKAYSSLIKDKVNRESVNSIQKSIFTVCLDKQVPRVSDDVYRSHVAGQMLHGGGSKFNSGNRWFDKTLQFIVAEDGSCGMVYEHAAAEGPPIVALVDHVMEYTKKPELVRSPMVPLPMPKKLRFNITPEIKNDIEKAKQNISIMIQDLDIMMLVFHHFGKDFPKSQKLSPDAFIQIALQLAYYRIYGQACATYESASLRMFHLGRTDTIRSASTDSLAFVKGMDDPKVPEQQRVELLRKAVQAHRAYTDRAIRGEAFDRHLLGLKLQAIEDLVSMPDIFMDTSYAIAMHFNLSTSQVPAKTDCVMSFGPVVPDGYGICYNPMEAHINFSVSAYNSCAETNAARMAHYLEKALLDMRTLLQNHPRAKL
# B8: GPD1 (protein, UniProt O35077 1-349)
# chain: MAGKKVCIVGSGNWGSAIAKIVGSNASQLAHFDPRVTMWVFEEDIGGRKLTEIINTQHENVKYLPGHKLPPNVVAVPDVVQAATGADILVFVVPHQFIGKICDQLKGHLKANTIGISLIKGIDEGPNGLKLISEVIGESLGIPMSVLMGANIASEVAEEKFCETTIGCKDPAQGQLLKELMQTPNFRITVVQEVDTVEICGALKNIVAVGAGFCDGLGFGDNTKAAVIRLGLMEMIAFAKLFCSGSVSSATFLESCGVADLITTCYGGRNRKVAEAFARTGKSIEQLEKEMLNGQKLQGPQTARELHSILQHKGLVDKFPLFTAVYKVCYEGQPVGEFICCLQNHPEHM
# B9: GFPT1 (protein, UniProt P82808 1-681)
# chain: MCGIFAYLNYHVPRTRREILETLIKGLQRLEYRGYDSAGVGLDGGNDKDWEANACKIQLIKKKGKVKALDEEVHKQQDMDLDIEFDVHLGIAHTRWATHGEPSPVNSHPQRSDKNNEFIVIHNGIITNYKDLKKFLESKGYDFESETDTETIAKLVKYMYDNWESQDVSFTTLVERVIQQLEGAFALVFKSVHFPGQAVGTRRGSPLLIGVRSEHKLSTDHIPILYRTGKDKKGSCGLSRVDSTTCLFPVEEKAVEYYFASDASAVIEHTNRVIFLEDDDVAAVVDGRLSIHRIKRTARDHPGRAVQTLQMELQQIMKGNFSSFMQKEIFEQPESVVNTMRGRVNFDDYTVNLGGLKDHIKEIQRCRRLILIACGTSYHAGMATRQVLEELTELPVMVELASDFLDRNTPVFRDDVCFFISQSGETADTLMGLRYCKERGALTVGITNTVGSSISRETDCGVHINAGPEIGVASTKAYTSQFVSLVMFALMMCDDRISMQERRKEIMLGLKRLPDLIKEVLSMDDEIQKLATELYHQKSVLIMGRGYHYATCLEGALKIKEITYMHSEGILAGELKHGPLALVDKLMPVIMIIMRDHTYAKCQNALQQVVARQGRPVVICDKEDTETIKNTKRTIKVPHSVDCLQGILSVIPLQLLAFHLAVLRGYDVDFPRNLAKSVTVE
# Molecular target: β2-adrenergic receptor (UniProt P07550)
# Assay: affinity purification with mass spectrometry; purified Flag-β2AR in rHDL immobilised on M1 anti-Flag resin, occupied by 50 µM BI-167107 (full agonist) or 50 µM carazolol (inverse agonist); adult rat heart cytosol (10 mg/ml, 4 mM CaCl2) overnight at 4°C; eluted with FLAG peptide and EDTA; gel slices, LC-MS; proteins of the M1 resin, empty rHDL and Ni-NTA controls subtracted; hits of either or both samples; only the target purified
row,binding,Binder
1,binds,B1
2,binds,B2
3,binds,B3
4,binds,B4
5,binds,B5
6,binds,B6
7,binds,B7
8,binds,B8
9,binds,B9

# Results are given in words; binding and its absence hold for the method and conditions named. Binding seen in cells or lysates may run through a third protein. A yes stands for co-enrichment or nearness to the bait. Other partners may have been found. Where a sequence is shown, tags or fusion partners need not be part of it.
